For this assay, the target named is T1, p190RhoGAP, endogenous in neonatal rat cardiomyocytes (rat (endogenous in NRCM)) (UniProt P81128).
T1 sequence: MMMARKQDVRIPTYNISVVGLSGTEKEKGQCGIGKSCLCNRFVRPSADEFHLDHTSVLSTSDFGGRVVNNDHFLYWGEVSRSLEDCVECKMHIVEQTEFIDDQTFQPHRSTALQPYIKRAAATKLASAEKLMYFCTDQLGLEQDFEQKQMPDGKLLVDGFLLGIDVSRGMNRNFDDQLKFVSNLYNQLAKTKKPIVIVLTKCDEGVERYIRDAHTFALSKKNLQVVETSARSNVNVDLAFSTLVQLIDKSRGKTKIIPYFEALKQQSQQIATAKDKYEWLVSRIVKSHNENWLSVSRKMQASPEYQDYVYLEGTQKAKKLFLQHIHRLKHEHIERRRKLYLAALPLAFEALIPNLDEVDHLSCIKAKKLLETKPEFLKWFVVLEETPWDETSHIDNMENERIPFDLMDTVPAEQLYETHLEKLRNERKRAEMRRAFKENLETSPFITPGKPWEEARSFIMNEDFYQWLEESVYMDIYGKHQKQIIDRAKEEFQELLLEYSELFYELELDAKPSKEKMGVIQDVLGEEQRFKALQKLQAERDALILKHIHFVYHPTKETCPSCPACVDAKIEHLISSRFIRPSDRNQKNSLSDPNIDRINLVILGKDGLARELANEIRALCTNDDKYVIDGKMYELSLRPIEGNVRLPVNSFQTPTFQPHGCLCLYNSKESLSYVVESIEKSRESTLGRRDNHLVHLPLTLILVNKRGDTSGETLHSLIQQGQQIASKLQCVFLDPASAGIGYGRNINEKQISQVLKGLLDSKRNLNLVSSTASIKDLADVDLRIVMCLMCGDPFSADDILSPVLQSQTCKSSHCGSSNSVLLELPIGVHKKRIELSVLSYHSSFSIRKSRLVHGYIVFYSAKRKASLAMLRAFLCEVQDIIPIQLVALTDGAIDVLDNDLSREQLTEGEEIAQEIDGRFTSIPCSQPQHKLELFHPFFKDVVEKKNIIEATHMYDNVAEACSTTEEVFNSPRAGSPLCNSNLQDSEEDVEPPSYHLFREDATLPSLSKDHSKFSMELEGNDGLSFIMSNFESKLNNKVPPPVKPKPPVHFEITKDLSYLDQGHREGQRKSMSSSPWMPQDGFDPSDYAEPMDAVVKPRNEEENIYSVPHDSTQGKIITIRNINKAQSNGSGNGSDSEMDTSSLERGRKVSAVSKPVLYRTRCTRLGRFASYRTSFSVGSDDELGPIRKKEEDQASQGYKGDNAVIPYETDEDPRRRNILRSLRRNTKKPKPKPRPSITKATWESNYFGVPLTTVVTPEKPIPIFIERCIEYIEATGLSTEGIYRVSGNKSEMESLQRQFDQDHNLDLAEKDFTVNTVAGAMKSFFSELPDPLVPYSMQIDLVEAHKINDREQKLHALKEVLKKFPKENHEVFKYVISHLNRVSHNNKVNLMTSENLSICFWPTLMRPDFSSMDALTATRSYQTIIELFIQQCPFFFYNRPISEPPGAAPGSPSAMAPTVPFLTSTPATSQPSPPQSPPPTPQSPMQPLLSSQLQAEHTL
Nature of the assay: proximity ligation; non-transduced NRCM on coverslips, without or with carbachol for 5 min, fixed and permeabilised; mouse anti-p190RhoGAP and rabbit anti-RGS3 primary antibodies; confocal microscopy; carbachol increased the signal.

No constants are given. Whether binding was seen depends on the method and setting. In cells and extracts the contact can be indirect. Binding can be weak; no strength is given.

Regarding “RGS3L, endogenous in neonatal rat cardiomyocytes”, the binding result is given as “binds”.

These data come from publication PMC8888479.
